The source of these data is patent US20250215080A1 (published 2025).

Test [1] deals with TREM2-IgSF-TREM1 stalk chimeric protein expressed in CHO-hDAP12 cells (human) (UniProt Q9NP99). In words: FACS on CHO cells.
Test [2] addresses T1, TREM2 (isoform 3) expressed on HEK293 cells of the plasma membrane protein cell array (human).
T1 sequence: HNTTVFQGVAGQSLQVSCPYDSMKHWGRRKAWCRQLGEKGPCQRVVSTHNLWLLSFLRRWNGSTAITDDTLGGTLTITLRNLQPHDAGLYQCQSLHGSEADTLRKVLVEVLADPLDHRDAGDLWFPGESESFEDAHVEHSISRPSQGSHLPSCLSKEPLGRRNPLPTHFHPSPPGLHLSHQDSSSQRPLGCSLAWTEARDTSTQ
In words: HEK293 cell array, 2 ug/ml.

No constants are given. Whether binding was seen depends on the method and setting. Some binding calls cover weakened binding; strength is not graded here.

B1: MOR044746 (antibody, V domains shown)
VH: QVQLQQSGPGLVKPSQTLSLTCAISGDSVSSSSAAWNWIRQSPSRGLEWLGHIGYRSKWYNEYAVSVKSRITINPDTSKNQFSLQLNSVTPEDTAVYYCARGMYGSVPYKEGYYFDIWGQGTLVTVSS
VL: DIQMTQSPSSLSASVGDRVTITCRASQGISSDLNWYQQKPGKAPKLLIYAASNLQSGVPSRFSGSGSGTDFTLTISSLQPEDFATYYCQQYTDESMTFGQGTKVEIK
notes: light chain 63); Human IgG vector of the campaign: IgG1f LALA; Matured from MOR042493; VH6 k1; also called MOR44746
B1: the binding entry in test [1] and in test [2] was “binds” in each case.
